Assay results taken from paper PMC12440877.
These are yes or no findings as the source states them, for the method shown. Binding seen in cells or lysates may run through a third protein. Some binding calls cover weakened binding; strength is not graded here.

Target: T1, Interferon-induced transmembrane protein 1 (IFITM1) (mouse (endogenous in NIH-3T3)) (UniProt Q9D103)
T1 sequence: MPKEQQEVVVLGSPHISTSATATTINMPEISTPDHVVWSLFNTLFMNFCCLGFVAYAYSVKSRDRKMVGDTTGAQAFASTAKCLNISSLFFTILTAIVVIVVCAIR
Test: co-IP; NIH-3T3 lysate; anti-IFITM1 antibody or IgG on magnetic beads; eluate analysed by SDS-PAGE and blot for CBR4

B1: CBR4 (protein, UniProt Q91VT4 1-236)
chain: MDKVCAVFGGSRGIGRAVAQLMAQKGYRLAIVSRNLEVAKVTAGELGGNHLAFRCDVAKEQDVQSTFQEMEKHLGPVNFLVNAAGINRDSLLVRTKTEDMISQLHTNLLGSMLTCKAAMKTMIQQGGSIVNVGSIIGLKGNVGQSAYSATKGGLVGFSRSLAKEVARKKIRVNVVAPGFIRTDMTRHLKEEHFKKNIPLGRFGETLEVAHAVVFLLESPYITGHVLIVDGGLQLTV
- binding: binds
